Reference: publication PMC11672691
No constants are given. Whether binding was seen depends on the method and setting. For some assays here: Binding seen in cells or lysates may run through a third protein. Some binding calls cover weakened binding; strength is not graded here. For some assays here: Where a sequence is shown, tags or fusion partners need not be part of it.

Sequences of proteins named here, by UniProt entry; tags and fusion partners are left off. A change or cut given only in a name is not applied to a line headed by its entry. Residues count along the entry.
UniProt Q99623: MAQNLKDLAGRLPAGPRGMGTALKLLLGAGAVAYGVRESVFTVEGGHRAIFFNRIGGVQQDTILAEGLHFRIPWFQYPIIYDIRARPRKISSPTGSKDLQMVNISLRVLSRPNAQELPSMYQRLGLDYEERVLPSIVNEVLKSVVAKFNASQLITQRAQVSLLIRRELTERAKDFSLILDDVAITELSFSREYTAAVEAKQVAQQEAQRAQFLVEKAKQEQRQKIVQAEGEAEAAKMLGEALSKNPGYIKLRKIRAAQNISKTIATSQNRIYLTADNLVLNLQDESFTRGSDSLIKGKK
UniProt Q99595: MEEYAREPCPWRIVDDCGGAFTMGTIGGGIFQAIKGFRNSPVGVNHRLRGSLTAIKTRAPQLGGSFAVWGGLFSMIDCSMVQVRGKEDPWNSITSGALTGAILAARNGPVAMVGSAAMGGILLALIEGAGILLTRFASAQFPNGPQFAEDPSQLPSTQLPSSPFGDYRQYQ
UniProt O60830: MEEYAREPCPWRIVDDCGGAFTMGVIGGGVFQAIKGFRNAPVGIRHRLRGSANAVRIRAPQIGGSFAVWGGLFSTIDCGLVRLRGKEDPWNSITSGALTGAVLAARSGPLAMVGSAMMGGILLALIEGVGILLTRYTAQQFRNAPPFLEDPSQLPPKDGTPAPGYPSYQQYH
UniProt Q9Y4W6, residues 67-797: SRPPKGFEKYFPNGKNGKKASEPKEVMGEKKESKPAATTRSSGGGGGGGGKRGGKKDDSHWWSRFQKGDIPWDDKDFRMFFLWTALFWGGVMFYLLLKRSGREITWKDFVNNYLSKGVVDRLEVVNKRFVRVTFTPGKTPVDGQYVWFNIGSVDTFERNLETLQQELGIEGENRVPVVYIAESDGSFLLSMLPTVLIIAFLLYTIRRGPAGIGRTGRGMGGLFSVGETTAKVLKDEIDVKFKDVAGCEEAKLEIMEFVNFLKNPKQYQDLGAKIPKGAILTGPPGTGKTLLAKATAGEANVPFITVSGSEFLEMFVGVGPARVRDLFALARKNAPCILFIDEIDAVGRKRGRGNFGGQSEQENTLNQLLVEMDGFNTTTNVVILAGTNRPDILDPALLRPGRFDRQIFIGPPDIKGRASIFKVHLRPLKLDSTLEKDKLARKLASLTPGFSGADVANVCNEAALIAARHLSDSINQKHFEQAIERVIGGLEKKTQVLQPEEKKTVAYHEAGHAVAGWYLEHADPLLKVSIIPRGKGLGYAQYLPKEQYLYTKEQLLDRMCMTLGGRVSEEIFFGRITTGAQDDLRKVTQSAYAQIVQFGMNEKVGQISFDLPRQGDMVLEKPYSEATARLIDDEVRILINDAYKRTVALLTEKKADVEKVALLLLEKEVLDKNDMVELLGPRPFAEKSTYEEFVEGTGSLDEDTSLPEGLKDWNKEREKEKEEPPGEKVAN
UniProt Q15388: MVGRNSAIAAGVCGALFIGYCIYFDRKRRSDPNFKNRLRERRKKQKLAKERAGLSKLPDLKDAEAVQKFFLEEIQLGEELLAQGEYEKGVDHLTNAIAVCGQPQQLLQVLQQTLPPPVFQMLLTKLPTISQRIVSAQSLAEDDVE

What was measured:
[1] = biological target: T1, OCIAD1_(FLAG) (ovarian cancer immunoreactive antigen domain-containing protein 1, FLAG-tagged) (human) (UniProt Q9NX40); test: co-IP; mitochondria of cells expressing the FLAG-tagged bait (OCIAD1_(FLAG) transiently in HEK293; TIMM21_(FLAG), TIMM23_(FLAG) tetracycline-induced in HEK293T) or an empty vector, solubilised in 1% digitonin buffer (150 mM NaCl, pH 7.4), anti-FLAG M2 affinity gel 2 h at 4°C, washed with 0.3% digitonin, eluted with Laemmli buffer, SDS-PAGE and western blot
T1 sequence: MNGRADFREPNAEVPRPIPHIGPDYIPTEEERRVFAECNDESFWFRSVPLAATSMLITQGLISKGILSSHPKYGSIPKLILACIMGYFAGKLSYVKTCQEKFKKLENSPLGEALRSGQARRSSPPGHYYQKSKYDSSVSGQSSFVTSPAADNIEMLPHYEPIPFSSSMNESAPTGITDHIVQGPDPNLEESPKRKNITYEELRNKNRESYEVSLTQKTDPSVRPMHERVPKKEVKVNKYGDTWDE

[2] = biological target: PHB2-HA (Prohibitin 2 with C-terminal HA tag) (human) (UniProt Q99623); test: co-IP; mitochondria of HEK293T cells transiently expressing the HA-tagged bait (PHB2-HA, HA-TIMM17A, HA-TIMM17B) or an empty vector, solubilised with digitonin (3:1 w/w detergent to protein) in Buffer B (0.22 M mannitol, 0.07 M sucrose, 0.02 M HEPES-KOH pH 7.6, 1 mM EDTA), anti-HA agarose 1 h at 4°C, eluted with sample buffer, SDS-PAGE and western blot
TIMM21_(FLAG) (human) = biological target: T2, TIMM21_(FLAG) (human) (UniProt Q9BVV7); test: co-IP; mitochondria of cells expressing the FLAG-tagged bait (OCIAD1_(FLAG) transiently in HEK293; TIMM21_(FLAG), TIMM23_(FLAG) tetracycline-induced in HEK293T) or an empty vector, solubilised in 1% digitonin buffer (150 mM NaCl, pH 7.4), anti-FLAG M2 affinity gel 2 h at 4°C, washed with 0.3% digitonin, eluted with Laemmli buffer, SDS-PAGE and western blot
T2 sequence: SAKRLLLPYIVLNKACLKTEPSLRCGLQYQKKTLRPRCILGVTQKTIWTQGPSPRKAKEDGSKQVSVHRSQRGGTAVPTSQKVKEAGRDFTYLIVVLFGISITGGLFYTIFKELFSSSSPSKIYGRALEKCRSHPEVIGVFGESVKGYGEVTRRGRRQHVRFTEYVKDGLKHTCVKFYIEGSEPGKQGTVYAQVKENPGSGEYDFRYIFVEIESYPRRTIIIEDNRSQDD

TIMM23_(FLAG) (human) = biological target: T3, TIMM23_(FLAG) (human) (UniProt O14925); test: as above
T3 sequence: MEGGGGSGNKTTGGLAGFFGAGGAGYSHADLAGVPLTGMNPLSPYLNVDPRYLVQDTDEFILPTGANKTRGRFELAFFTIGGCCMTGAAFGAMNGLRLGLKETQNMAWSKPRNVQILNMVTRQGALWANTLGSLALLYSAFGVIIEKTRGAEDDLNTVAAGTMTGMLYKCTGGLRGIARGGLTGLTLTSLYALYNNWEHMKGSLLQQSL

HA-TIMM17A (human) = HA-TIMM17A (human) (UniProt Q99595); test: co-IP; mitochondria of HEK293T cells transiently expressing the HA-tagged bait (PHB2-HA, HA-TIMM17A, HA-TIMM17B) or an empty vector, solubilised with digitonin (3:1 w/w detergent to protein) in Buffer B (0.22 M mannitol, 0.07 M sucrose, 0.02 M HEPES-KOH pH 7.6, 1 mM EDTA), anti-HA agarose 1 h at 4°C, eluted with sample buffer, SDS-PAGE and western blot
HA-TIMM17B (human) = HA-TIMM17B (human) (UniProt O60830); test: as above
[3] = biological target: PHB2 (endogenous) (human (endogenous in HEK293 and HEK293T)) (UniProt Q99623); test: native gel or EMSA; in organello import of [^35S]OCIAD1 into mitochondria isolated from HEK293 control and PHB2 siRNA-depleted cells, solubilised in 1% digitonin buffer, 3%-13% BN-PAGE, autoradiography

## AFG3L2 (endogenous) (from UniProt Q9Y4W6 67-797) (enzyme)
[1]
  binding: binds

## TIMM17A (endogenous) (from UniProt Q99595 1-171)
[2]
  binding: binds
TIMM21_(FLAG) (human)
  binding: binds
TIMM23_(FLAG) (human)
  binding: binds

## TOMM20 (endogenous) (from UniProt Q15388 1-145)
[1]
  binding: binds

## TIMM17B (endogenous) (from UniProt O60830-1 1-172)
[2]
  binding: binds

B1: TIMM22 (endogenous) (protein, UniProt Q9Y584 1-194)
chain: MAAAAPNAGGSAPETAGSAEAPLQYSLLLQYLVGDKRQPRLLEPGSLGGIPSPAKSEEQKMIEKAMESCAFKAALACVGGFVLGGAFGVFTAGIDTNVGFDPKDPYRTPTAKEVLKDMGQRGMSYAKNFAIVGAMFSCTECLIESYRGTSDWKNSVISGCITGGAIGFRAGLKAGAIGCGGFAAFSAAIDYYLR
[1]
  binding: binds

B2: OCIAD1 (endogenous) (protein, UniProt Q9NX40 1-245)
chain: T1 sequence
HA-TIMM17A (human)
  binding: binds
HA-TIMM17B (human)
  binding: binds
[2]
  binding: binds
TIMM21_(FLAG) (human)
  binding: binds
TIMM23_(FLAG) (human)
  binding: binds

B3: TIMM23 (endogenous) (protein, UniProt O14925 1-209)
chain: T3 sequence
HA-TIMM17A (human)
  binding: binds
HA-TIMM17B (human)
  binding: binds
[2]
  binding: binds
[1]
  binding: binds

B4: [^35S]OCIAD1 (radiolabeled OCIAD1 precursor) (protein, UniProt Q9NX40 1-245)
chain: T1 sequence
modifications: 35S radiolabel ([^35S]methionine)
[3]
  binding: binds
